Reference: the supplement of paper PMC8616043
Counter-ions that a name gives are not always drawn. This is one part of the list. Single values are uncertain here, since repeats match poorly.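 Human U-2 OS cells stably expressing a GFP sensor with a nuclear import signal and classical export signal were transfected to produce PR50, a 50-repeat proline–arginine dipeptide from ALS/FTD gene C9ORF72. Nuclear-minus-cytoplasm GFP was scaled from DMSO (low) to PR-only (high), scored against plate test wells; strongly negative scores marked PR-reversing hits.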

Tested on: U-2 OS NCT-C biosensor cells expressing PR50
Test: Z-score of normalised NCT-C biosensor translocation index in PR50-expressing cells; higher = more nuclear biosensor (more disrupted nuclear export)
Details: 3 µM; 24 h

| Structure (SMILES) | Z-score |
| --- | --- |
| OCCN1CCN(CC/C=C2/c3ccccc3Sc3ccc(C(F)(F)F)cc32)CC1 [cis(Z)-Flupenthixol dihydrochloride] | inactive: -0.013 |
| N=C1CCCN1Cc1[nH]c(=O)[nH]c(=O)c1Cl [Tipiracil hydrochloride] | inactive: -0.427 |
| C[C@@H](NCCCc1cccc(C(F)(F)F)c1)c1cccc2ccccc12 [Cinacalcet·HCl] | inactive: 0.468 |
| CC[N+](C)(C)c1cccc(O)c1 [Edrophonium chloride] | inactive: 0.244 |
| NCCc1c[nH]cn1 [Histamine dihydrochloride] | inactive: 0.321 |
| OC(Cn1cncn1)(Cn1cncn1)c1ccc(F)cc1F [Fluconazole] | inactive: 0.916 |
| C#CC(N)CCC(=O)O (stereo unspecified) [gamma-Acetylinic GABA] | inactive: -0.0868 |
| COc1cc([C@@H]2CC(=O)c3c(O)cc(O)cc3O2)ccc1O [Homoeriodictyol] | inactive: -0.318 |
| N=C(NC(=O)c1nc(Cl)c(N)nc1N)Nc1ccccc1 [Phenamil methanesulfonate] | inactive: -0.84 |
| O=C1C[C@@H](c2ccccc2)Oc2cc(O)cc(O)c21 [Pinocembrin] | inactive: -0.301 |
| COc1cc(C(=O)OCCCN2CCCN(CCCOC(=O)c3cc(OC)c(OC)c(OC)c3)CC2)cc(OC)c1OC [Dilazep Dihydrochloride] | inactive: -1.25 |
| O=C1NC(=O)c2c1c(-c1ccccc1)cc1[nH]c3ccc(O)cc3c21 | inactive: 0.0316 |
| CCN(CC)CCOC(=O)C1(C2CCCCC2)CCCCC1 [Dicyclomine·HCl] | inactive: -0.0536 |
| CCN(CC)CCOC(=O)C1(C2CCCCC2)CCCCC1 [Dicyclomine hydrochloride] | inactive: -0.367 |
| O=c1cc(-c2ccccc2)oc2c(O)c(O)ccc12 [7,8-  Dihydroxyflavone hydrate] | inactive: -0.198 |
| CCCc1cc(C)[nH]c(=O)c1CNC(=O)c1cc(-c2ccc(N3CCN(C(C)C)CC3)nc2)cc2c1cnn2C(C)C | active: -3.17 |
| CC(N/C(=N\C#N)Nc1ccncc1)C(C)(C)C (stereo unspecified) [Pinacidil] | inactive: 0.53 |
| C[N+]1(C)CCC(OC(=O)C(c2ccccc2)c2ccccc2)CC1 [4-DAMP  methiodide] | inactive: 1.8 |
| C[N+]1(C)CCC(OC(=O)C(c2ccccc2)c2ccccc2)CC1 | inactive: -0.189 |
| COc1cc(C(=O)O[C@H]2C[C@@H]3CC[C@]2(C)C3(C)C)ccc1O [Tschimganine] | inactive: -0.188 |
| CC(=O)Oc1ccccc1C(=O)Nc1ncc([N+](=O)[O-])s1 [Nitazoxanide] | inactive: -0.725 |
| Cc1[nH]ccc2c1[nH]c1cc(=O)ccc12 [Harmol·HCl·2H2O] | inactive: 0.248 |
| CCCCCCCCCC(=O)NC(CN1CCOCC1)C(C)c1ccccc1 (racemic) | inactive: 0.307 |
| CCc1ccccc1OC[C@@H](O)CN[C@H]1CCCc2ccccc21 | inactive: -0.128 |

Part of the list above, tab-delimited.
Structure (SMILES)	Z-score
CC[N+](C)(C)c1cccc(O)c1 [Edrophonium chloride]	inactive: 0.244
NCCc1c[nH]cn1 [Histamine dihydrochloride]	inactive: 0.321

(next part)

| Structure (SMILES) | Z-score |
| --- | --- |
| N=C(NCCCCCCNC(=N)NC(=N)Nc1ccc(Cl)cc1)NC(=N)Nc1ccc(Cl)cc1 [Chlorhexidine Dihydrochloride] | inactive: 0.271 |
| CN1CCN(C2=Nc3ccccc3Oc3ccc(Cl)cc32)CC1 [Loxapine Succinate] | inactive: -1.05 |
| CN1CCN(C2=Nc3ccccc3Oc3ccc(Cl)cc32)CC1 [Loxapine succinate] | inactive: -0.246 |
| CN(C)C(=O)Nc1cccc(-c2ccc(N(C)C)cc2)c1 [Atglistatin] | inactive: 0.893 |
| Clc1ccc(CCC(Cn2ccnc2)Sc2c(Cl)cccc2Cl)cc1 (stereo unspecified) [Butoconazole Nitrate] | inactive: 0.51 |
| N#Cc1ccc(C(c2ccc(C#N)cc2)n2cncn2)cc1 [Letrozole] | inactive: -0.548 |
| COC1=C[C@@H](C)[C@@H]2C[C@H]3OC(=O)C[C@H]4C(C)=C(OC)C(=O)[C@H]([C@@]2(C)C1=O)[C@@]34C [Quassin] | inactive: -0.618 |
| C[N+]1(C)CCC(OC(=O)C(O)(c2ccccc2)C2CCCC2)C1 (stereo unspecified) [Glycopyrrolate Iodide] | inactive: -0.318 |
| C[C@@H]1C[C@H]2O[C@@H]2/C=C\C=C\C(=O)Cc2c(Cl)c(O)cc(O)c2C(=O)O1 [Radicicol] | inactive: -1.31 |
| Cc1nnc(C(=O)NC(C)(C)c2nc(C(=O)NCc3ccc(F)cc3)c(O)c(=O)n2C)o1 [Raltegravir potassium] | inactive: -0.529 |
| CC(=O)/C=C1/C(=O)N(C)c2ccccc21 [Supercinnamaldehyde] | inactive: 4 |
| Cc1cc(CN2CCN(c3c(Br)cnc4nc(-c5ccc(N6CCN(C)CC6)cc5)[nH]c34)CC2)no1 | inactive: 0.0302 |
| Cc1ccc(=O)n(-c2ccccc2)c1 [Pirfenidone] | inactive: -0.0797 |
| O=C(Nc1ccncc1)c1cc([N+](=O)[O-])ccc1Cl | inactive: -0.232 |
| Cc1cc(NC(=O)Nc2ccc3c(ccn3C)c2)sn1 | inactive: -0.417 |
| N#Cc1cc2nc(O)c(O)nc2cc1[N+](=O)[O-] [CNQX disodium] | inactive: 0.0822 |
| C[C@@H](CN1CCC(Cc2ccccc2)CC1)[C@@H](O)c1ccc(O)cc1 [Ro 25-6981  hydrochloride] | inactive: -0.994 |
| N[C@@H](CS(=O)O)C(=O)O [L-Cysteinesulfinic Acid] | inactive: -0.0364 |
| C[N+](C)(C)CC(=O)O [Betaine hydrochloride] | inactive: 1.85 |
| C[N+](C)(C)CC(=O)O [Betaine] | inactive: -0.12 |
| Cc1nc(C(=O)N2CCC[C@H]2Cc2nnc(-c3ccccc3)o2)c(-c2ccccc2F)s1 | inactive: -0.0819 |
| CC[C@H](CO)Nc1nc(NCc2ccccc2)c2ncn(C(C)C)c2n1 [Roscovitine] | inactive: 0.25 |
| OCCN(CCO)c1nc(N2CCCCC2)c2nc(N(CCO)CCO)nc(N3CCCCC3)c2n1 [Dipyridamole] | inactive: 0.526 |
| COC(=O)[C@@H]1CC2=CC(=O)CC[C@]2(C)[C@@]23O[C@@H]2C[C@@]2(C)[C@@H](CC[C@@]24CCC(=O)O4)[C@H]13 [Eplerenone] | inactive: 0.209 |

Laid out differently: entries from further up
Structure (SMILES)	Z-score
NCCc1c[nH]cn1 [Histamine dihydrochloride]	inactive: 0.321
OC(Cn1cncn1)(Cn1cncn1)c1ccc(F)cc1F [Fluconazole]	inactive: 0.916
C#CC(N)CCC(=O)O (stereo unspecified) [gamma-Acetylinic GABA]	inactive: -0.0868

Additional entries

| Structure (SMILES) | Z-score |
| --- | --- |
| NO [Hydroxylamine hydrochloride] | inactive: 0.017 |
| Nc1nc(Cl)nc2c1ncn2[C@@H]1O[C@H](CO)[C@@H](O)[C@H]1O [2-Chloroadenosine] | inactive: -0.55 |
| Nc1cc(Cl)c(NC2=NCCN2)c(Cl)c1 [p-Aminoclonidine hydrochloride] | inactive: -0.0834 |
| CNC(=O)c1cc(Oc2ccc(NC(=O)Nc3ccc(Cl)c(C(F)(F)F)c3)cc2)ccn1 [Sorafenib Tosylate] | inactive: -0.795 |
| COc1cccc2c1C(=O)c1c(O)c3c(c(O)c1C2=O)C[C@@](O)(C(C)=O)C[C@@H]3O[C@H]1C[C@H](N)[C@H](O)[C@H](C)O1 [Daunorubicin] | inactive: -0.45 |
| O=C(Nc1cccc(C(=O)Nc2ccc(S(=O)(=O)O)c3cc(S(=O)(=O)O)cc(S(=O)(=O)O)c23)c1)Nc1cccc(C(=O)Nc2ccc(S(=O)(=O)O)c3cc(S(=O)(=O)O)cc(S(=O)(=O)O)c23)c1 | inactive: -0.319 |
| COc1cc(-c2oc3cc(O)cc(O)c3c(=O)c2O)ccc1O [Isorhamnetine] | inactive: 0.806 |
| Cc1cn([C@H]2C=C[C@@H](CO)O2)c(=O)[nH]c1=O [Stavudine] | inactive: 0.109 |
| C=C1CC[C@@H]2[C@](C)(CO)[C@H](O)CC[C@@]2(C)[C@@H]1C/C=C1/C(=O)OC[C@H]1O [Andrographolide] | inactive: 0.4 |
| CCCCCCCCCCCCC/C=C/[C@@H](O)[C@H](CO)NC(=O)CCCCC [C6 Ceramide] | inactive: -0.224 |
| Nc1ncnc2c1nc(Br)n2C1OC2COP(=O)(O)O[C@@H]2C1O (stereo partly specified) [8-Bromo-cAMP sodium] | inactive: 3.16 |
| CN1C(CCl)Nc2cc(Cl)c(S(N)(=O)=O)cc2S1(=O)=O (stereo unspecified) [Methyclothiazide] | inactive: -0.498 |
| C=CC1=C(C(=O)O)N2C(=O)[C@@H](NC(=O)/C(=N\O)c3csc(N)n3)[C@H]2SC1 [Cefdinir] | inactive: -0.309 |
| CC(C)C(=O)SCCCCC[C@H](NC(=O)OC(C)(C)C)C(=O)NC12CC3CC(CC(C3)C1)C2 | inactive: -1.14 |
| c1ccc2c(CC3=NCCN3)cccc2c1 [Naphazoline·HCl] | inactive: 0.266 |
| c1ccc2c(CC3=NCCN3)cccc2c1 [Naphazoline hydrochloride] | inactive: -0.726 |
| CC(=O)OCC(=O)[C@@]12OC(C)(C)O[C@@H]1C[C@H]1[C@@H]3C[C@H](F)C4=CC(=O)C=C[C@]4(C)[C@@]3(F)[C@@H](O)C[C@@]12C [Fluocinonide] | inactive: 0.47 |
| CCN(CC)CC(=O)Nc1c(C)cccc1C [Lidocaine·HCl·H2O] | inactive: -1.14 |
| CCN(CC)CC(=O)Nc1c(C)cccc1C [Lidocaine hydrochloride] | inactive: -0.564 |
| NS(=O)(=O)c1cc2c(cc1Cl)NC(C1CC3C=CC1C3)NS2(=O)=O (stereo unspecified) [Cyclothiazide] | inactive: -0.137 |
| S=C(S)N1CCCC1 [Ammonium pyrrolidine dithiocarbamate] | inactive: -0.129 |
| CSC(=N)NCCC[C@H](N)C(=O)O [S-Methyl-L- thiocitrulline acetate] | inactive: 0.356 |
| C[C@@H]1O[C@@H](O[C@H]2[C@H](Oc3cc(O)c4c(=O)c(O)c(-c5ccc(O)cc5)oc4c3)O[C@H](CO)[C@@H](O)[C@@H]2O)[C@H](O)[C@H](O)[C@H]1O [Kaempferol-7-neohesperidoside] | inactive: -0.427 |
